No constants are given. Whether binding was seen depends on the method and setting. In cells and extracts the contact can be indirect. Some results given as binding are weak or reduced against the parent protein; the word gives no strength. Where a sequence is shown, tags or fusion partners need not be part of it.

The target in experiment [1] is T1, RGLG2-FLAG (Arabidopsis thaliana) (UniProt Q9LY87).
T1 sequence: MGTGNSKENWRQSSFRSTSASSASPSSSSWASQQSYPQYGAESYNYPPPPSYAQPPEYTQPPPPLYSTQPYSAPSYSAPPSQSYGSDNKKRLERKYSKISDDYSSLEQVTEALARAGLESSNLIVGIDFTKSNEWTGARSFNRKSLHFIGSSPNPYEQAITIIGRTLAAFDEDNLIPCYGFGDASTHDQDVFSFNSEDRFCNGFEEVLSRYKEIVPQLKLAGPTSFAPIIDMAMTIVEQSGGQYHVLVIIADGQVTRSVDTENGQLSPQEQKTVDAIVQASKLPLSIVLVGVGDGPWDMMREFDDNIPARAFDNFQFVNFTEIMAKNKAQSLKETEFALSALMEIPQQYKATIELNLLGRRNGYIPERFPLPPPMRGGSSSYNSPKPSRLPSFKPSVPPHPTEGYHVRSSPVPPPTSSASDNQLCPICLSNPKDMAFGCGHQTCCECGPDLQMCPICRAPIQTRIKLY
The experiment in a line: co-IP; Arabidopsis protoplasts co-transfected with pHBT plasmids, 10 h; with or without 2.5 uM flg22 for 30 min (some with MG132; Col-0, bak1 or rglg1 rglg2 protoplasts); IP with anti-FLAG antibodies and protein G agarose, 4 C; 10 mM HEPES pH 7.5, 100 mM NaCl, 0.5% Triton X-100.

For experiment [2], the target named is T2, BIK1 (expressed in Arabidopsis protoplasts or in vivo; tag of the experiment not told) (Arabidopsis thaliana) (UniProt O48814).
T2 sequence: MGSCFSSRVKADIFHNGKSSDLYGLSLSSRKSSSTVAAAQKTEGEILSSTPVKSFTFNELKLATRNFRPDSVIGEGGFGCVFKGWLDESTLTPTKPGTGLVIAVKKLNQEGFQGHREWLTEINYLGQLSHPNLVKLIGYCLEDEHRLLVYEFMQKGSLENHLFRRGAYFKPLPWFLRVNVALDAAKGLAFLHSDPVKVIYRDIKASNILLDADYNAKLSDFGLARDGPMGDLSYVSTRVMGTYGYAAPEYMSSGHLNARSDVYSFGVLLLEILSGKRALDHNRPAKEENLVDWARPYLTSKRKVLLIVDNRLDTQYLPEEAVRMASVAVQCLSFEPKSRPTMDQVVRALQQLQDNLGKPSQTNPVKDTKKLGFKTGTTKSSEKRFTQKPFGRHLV
The experiment is described as above.

Experiment [3] has as its target T3, BIK1-FLAG (Arabidopsis thaliana) (UniProt O48814).
T3 sequence: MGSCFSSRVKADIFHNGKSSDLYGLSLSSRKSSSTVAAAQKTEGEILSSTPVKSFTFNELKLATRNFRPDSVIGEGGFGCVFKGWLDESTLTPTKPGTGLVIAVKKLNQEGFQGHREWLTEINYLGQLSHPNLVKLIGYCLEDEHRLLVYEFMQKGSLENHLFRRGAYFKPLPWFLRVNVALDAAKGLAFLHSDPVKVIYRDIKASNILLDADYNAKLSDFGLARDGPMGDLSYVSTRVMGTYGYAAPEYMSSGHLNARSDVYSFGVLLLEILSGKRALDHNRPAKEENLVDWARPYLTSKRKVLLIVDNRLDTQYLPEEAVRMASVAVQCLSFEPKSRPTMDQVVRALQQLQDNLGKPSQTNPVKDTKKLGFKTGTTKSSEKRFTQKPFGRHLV
The experiment in a line: co-IP; stable transgenic Arabidopsis seedlings, with or without 5 uM flg22 for 30 min; BIK1-FLAG immunoprecipitated with anti-FLAG.

Experiment [4] concerns the target T4, PUB25-FLAG (Arabidopsis thaliana) (UniProt Q9LT79).
T4 sequence: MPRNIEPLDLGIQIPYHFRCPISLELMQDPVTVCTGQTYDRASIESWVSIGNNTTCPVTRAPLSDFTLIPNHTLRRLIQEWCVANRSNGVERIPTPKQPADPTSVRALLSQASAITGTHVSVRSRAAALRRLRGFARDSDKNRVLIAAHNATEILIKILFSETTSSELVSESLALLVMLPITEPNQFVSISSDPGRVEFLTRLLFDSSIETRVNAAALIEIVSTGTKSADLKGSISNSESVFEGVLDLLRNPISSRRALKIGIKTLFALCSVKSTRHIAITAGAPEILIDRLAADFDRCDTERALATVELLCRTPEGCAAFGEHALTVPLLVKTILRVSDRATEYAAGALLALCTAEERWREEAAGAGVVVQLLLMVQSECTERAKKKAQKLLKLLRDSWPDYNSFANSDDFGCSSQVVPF
Put plainly: co-IP; Arabidopsis protoplasts co-transfected with pHBT plasmids, 10 h; with or without 2.5 uM flg22 for 30 min (some with MG132; Col-0, bak1 or rglg1 rglg2 protoplasts); IP with anti-FLAG antibodies and protein G agarose, 4 C; 10 mM HEPES pH 7.5, 100 mM NaCl, 0.5% Triton X-100.

Experiment [5] concerns the target T5, BAK1-FLAG (Arabidopsis thaliana) (UniProt Q94F62).
T5 sequence: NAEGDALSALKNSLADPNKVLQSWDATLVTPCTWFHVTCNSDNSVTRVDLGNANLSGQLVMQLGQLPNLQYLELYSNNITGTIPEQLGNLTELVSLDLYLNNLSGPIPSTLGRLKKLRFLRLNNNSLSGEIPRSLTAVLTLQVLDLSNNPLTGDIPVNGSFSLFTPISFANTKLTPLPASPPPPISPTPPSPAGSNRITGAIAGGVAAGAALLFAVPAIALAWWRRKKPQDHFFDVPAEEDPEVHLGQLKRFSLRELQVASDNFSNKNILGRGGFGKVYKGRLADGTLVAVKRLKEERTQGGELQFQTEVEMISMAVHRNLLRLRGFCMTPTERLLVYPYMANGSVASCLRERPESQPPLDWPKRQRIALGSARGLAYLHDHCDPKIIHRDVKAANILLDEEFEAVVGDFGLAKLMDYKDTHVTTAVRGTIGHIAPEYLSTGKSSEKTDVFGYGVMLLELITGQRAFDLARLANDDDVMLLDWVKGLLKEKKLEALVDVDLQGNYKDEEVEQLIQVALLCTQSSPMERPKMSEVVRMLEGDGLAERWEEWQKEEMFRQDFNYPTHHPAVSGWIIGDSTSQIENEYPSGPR
The description is as above.

Experiment [6] deals with T3, BIK1-FLAG (Arabidopsis thaliana). The experiment is described as above.
Experiment [7] concerns the target T6, BIK1-nYFP (Arabidopsis thaliana) (UniProt O48814).
T6 sequence: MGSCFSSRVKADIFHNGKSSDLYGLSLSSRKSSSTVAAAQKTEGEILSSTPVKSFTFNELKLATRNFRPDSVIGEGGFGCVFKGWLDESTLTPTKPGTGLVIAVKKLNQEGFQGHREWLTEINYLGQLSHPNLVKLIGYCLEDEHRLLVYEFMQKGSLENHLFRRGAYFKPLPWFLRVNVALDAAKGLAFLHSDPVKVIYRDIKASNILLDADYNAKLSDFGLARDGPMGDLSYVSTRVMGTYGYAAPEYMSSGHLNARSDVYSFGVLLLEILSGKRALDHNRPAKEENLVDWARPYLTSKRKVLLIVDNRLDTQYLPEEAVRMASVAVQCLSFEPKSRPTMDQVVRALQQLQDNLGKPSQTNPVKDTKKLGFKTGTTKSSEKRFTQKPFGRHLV
The experiment in a line: split reporter; BiFC: nYFP and cYFP fusions transfected into Arabidopsis protoplasts, confocal microscopy.

In experiment [8] the target is T7, PUB25-nYFP (Arabidopsis thaliana) (UniProt Q9LT79).
T7 sequence: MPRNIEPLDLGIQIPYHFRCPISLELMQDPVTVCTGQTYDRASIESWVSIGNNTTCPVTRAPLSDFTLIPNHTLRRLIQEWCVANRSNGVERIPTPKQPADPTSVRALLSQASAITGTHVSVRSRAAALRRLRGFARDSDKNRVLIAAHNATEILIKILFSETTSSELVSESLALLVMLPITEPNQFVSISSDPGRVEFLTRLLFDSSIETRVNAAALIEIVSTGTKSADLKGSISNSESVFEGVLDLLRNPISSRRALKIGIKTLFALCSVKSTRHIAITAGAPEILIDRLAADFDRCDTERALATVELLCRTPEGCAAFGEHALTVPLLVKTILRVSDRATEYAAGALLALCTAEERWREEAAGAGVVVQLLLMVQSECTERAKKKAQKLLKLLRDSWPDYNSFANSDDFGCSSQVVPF
The experiment is described as above.

B1: BAK1-HA (receptor, UniProt Q94F62 26-615)
chain: NAEGDALSALKNSLADPNKVLQSWDATLVTPCTWFHVTCNSDNSVTRVDLGNANLSGQLVMQLGQLPNLQYLELYSNNITGTIPEQLGNLTELVSLDLYLNNLSGPIPSTLGRLKKLRFLRLNNNSLSGEIPRSLTAVLTLQVLDLSNNPLTGDIPVNGSFSLFTPISFANTKLTPLPASPPPPISPTPPSPAGSNRITGAIAGGVAAGAALLFAVPAIALAWWRRKKPQDHFFDVPAEEDPEVHLGQLKRFSLRELQVASDNFSNKNILGRGGFGKVYKGRLADGTLVAVKRLKEERTQGGELQFQTEVEMISMAVHRNLLRLRGFCMTPTERLLVYPYMANGSVASCLRERPESQPPLDWPKRQRIALGSARGLAYLHDHCDPKIIHRDVKAANILLDEEFEAVVGDFGLAKLMDYKDTHVTTAVRGTIGHIAPEYLSTGKSSEKTDVFGYGVMLLELITGQRAFDLARLANDDDVMLLDWVKGLLKEKKLEALVDVDLQGNYKDEEVEQLIQVALLCTQSSPMERPKMSEVVRMLEGDGLAERWEEWQKEEMFRQDFNYPTHHPAVSGWIIGDSTSQIENEYPSGPR
Turning to B1, in experiment [1], the binding entry is “binds”.

B2: ATL80 (expressed in Arabidopsis protoplasts; tag not told) (protein, UniProt Q9LM69 1-197)
chain: MARLLFRLLVESNTPSPAIDNSTAALNSDLVVILAALLCALICVLGLIAVSRCVWLRRLAAGNRTVSGSQTQSPQPPVAAANKGLKKKVLQSLPKLTFSPESPESEKFAECAICLAEFSAGDELRVLPQCGHGFHVACIDTWLGSHSSCPSCRQILVVARCHKCGGLPGSSSSGLESEPEIEIRIKQGEDDPNSFLP
As for B2, the binding entry in experiment [2] was “binds”.

B3: RGLG1-HA (protein, UniProt Q9SS90 1-489)
chain: MGGGNSKEESSSPSSSSWASHQSYPQYGPDSYNYPPPPTYAPAPSPAPAPAPVPAPSPASSYGPQYSQEGYASQPNNPPPPTYAPAPSPASSYGHQYSQEGYASAASQPNYPPPPSQSQVADRKKFDRRYSKISDNYSSLLQVSEALGRAGLESSNLIVGIDFTKSNEWTGAKSFNRKSLHHLSNTPNPYEQAITIIGRTLAAFDEDNLIPCYGFGDASTHDQDVFSFYPEGRFCNGFEEVLARYREIVPQLKLAGPTSFAPIIEMAMTVVEQSSGQYHVLVIIADGQVTRSVDTEHGRLSPQEQKTVDAIVKASTLPLSIVLVGVGDGPWDMMQEFDDNIPARAFDNFQFVNFTEIMSKNKDQSRKETEFALSALMEIPPQYKATIELNLLGVRNGNIPQRIPLPPPVQSGSSFSSSRIPNFEPSVPPYPFESKQMSSADDIQLCPICLSNPKNMAFGCGHQTCCECGPDLKVCPICRAPIQTRIKLY
Regarding B3, the binding result in experiment [3], in experiment [4], in experiment [5] and in experiment [6] was “binds” in each case.

B4: RGLG3 (expressed in Arabidopsis protoplasts; tag not told) (protein, UniProt Q8RX26 1-367)
chain: MNMSNKRNQQPSYIADHFSSLDQVITSLREAGLESSNLILGIDFTKSNEWTGRYSFNRKSLHAIGKRQNPYEKAISIIGRTLSPFDEDDLIPCFGFGDVTTRDQYVFSFYPENKSCDGLENAVKRYREIVPHLKLSGPTSFAPVIDAAINIVEQNNMQYHVLVIIADGQVTRNPDVPLGRLSPQEEATMNSIMAASHYPLSIVLVGVGDGPWDTMKQFDDNIPHREFDNFQFVNFTKIMSEHKDAAKKEAAFALAALMEIPFQYKATLSLNRKPVRSSHQHHKPLPPPPEVIERDNAVRSVPNQMTETAEKSDRLAPSTVPVCPICLTNPKDMAFSCGHTTCKECGVVITTCPLCRQPITTRIRLYT
As to B4, the binding entry in experiment [2] is given as “no binding”.

B5: RGLG3-cYFP (protein, UniProt Q8RX26 1-367)
chain: MNMSNKRNQQPSYIADHFSSLDQVITSLREAGLESSNLILGIDFTKSNEWTGRYSFNRKSLHAIGKRQNPYEKAISIIGRTLSPFDEDDLIPCFGFGDVTTRDQYVFSFYPENKSCDGLENAVKRYREIVPHLKLSGPTSFAPVIDAAINIVEQNNMQYHVLVIIADGQVTRNPDVPLGRLSPQEEATMNSIMAASHYPLSIVLVGVGDGPWDTMKQFDDNIPHREFDNFQFVNFTKIMSEHKDAAKKEAAFALAALMEIPFQYKATLSLNRKPVRSSHQHHKPLPPPPEVIERDNAVRSVPNQMTETAEKSDRLAPSTVPVCPICLTNPKDMAFSCGHTTCKECGVVITTCPLCRQPITTRIRLYT
For the molecule B5, the binding result in experiment [7] and in experiment [8] was “no binding” in each case.

B6: PUB25 (co-IP with BIK1; tag not told) (protein, UniProt Q9LT79 1-421)
chain: MPRNIEPLDLGIQIPYHFRCPISLELMQDPVTVCTGQTYDRASIESWVSIGNNTTCPVTRAPLSDFTLIPNHTLRRLIQEWCVANRSNGVERIPTPKQPADPTSVRALLSQASAITGTHVSVRSRAAALRRLRGFARDSDKNRVLIAAHNATEILIKILFSETTSSELVSESLALLVMLPITEPNQFVSISSDPGRVEFLTRLLFDSSIETRVNAAALIEIVSTGTKSADLKGSISNSESVFEGVLDLLRNPISSRRALKIGIKTLFALCSVKSTRHIAITAGAPEILIDRLAADFDRCDTERALATVELLCRTPEGCAAFGEHALTVPLLVKTILRVSDRATEYAAGALLALCTAEERWREEAAGAGVVVQLLLMVQSECTERAKKKAQKLLKLLRDSWPDYNSFANSDDFGCSSQVVPF
Take B6: the binding result in experiment [2] was “binds”.

Values taken from paper PMC10397244.
